Assay results reported in PMC8298490, “Structure and function of an Arabidopsis thaliana sulfate transporter” (Nature Communications, 2021).
These are yes or no findings as the source states them, for the method shown.

Biological target: AtSULTR4;1 ΔSTAS (Arabidopsis thaliana) (UniProt Q9FY46)
Experiment: SEC; purified protein on SRT-3C SEC-300 column, 20 mM HEPES, 150 mM NaCl, 5 mM BME, 0.01% LMNG; elution profile compared with wild type; both purified

binding: no binding
B1: AtSULTR4;1 ΔSTAS (domain or fragment, UniProt Q9FY46 24-502)
chain: SSLKPPGQTRPVKVIPLQHPDTSNEARPPSIPFDDIFSGWTAKIKRMRLVDWIDTLFPCFRWIRTYRWSEYFKLDLMAGITVGIMLVPQAMSYAKLAGLPPIYGLYSSFVPVFVYAIFGSSRQLAIGPVALVSLLVSNALGGIADTNEELHIELAILLALLVGILECIMGLLRLGWLIRFISHSVISGFTSASAIVIGLSQIKYFLGYSIARSSKIVPIVESIIAGADKFQWPPFVMGSLILVILQVMKHVGKAKKELQFLRAAAPLTGIVLGTTIAKVFHPPSISLVGEIPQGLPTFSFPRSFDHAKTLLPTSALITGVAILESVGIAKALAAKNRYELDSNSELFGLGVANILGSLFSAYPATGSFSRSAVNNESEAKTGLSGLITGIIIGCSLLFLTPMFKYIPQCALAAIVISAVSGLVDYDEAIFLWRVDKRDFSLWTITSTITLFFGIEIGVLVGVGFSLAFVIHESANPHIA
